# Laboratory results taken from doi:10.1101/424218.
# By UniProt entry, the sequences of proteins in these tests, tags left out.
# UniProt P22216, whole entry: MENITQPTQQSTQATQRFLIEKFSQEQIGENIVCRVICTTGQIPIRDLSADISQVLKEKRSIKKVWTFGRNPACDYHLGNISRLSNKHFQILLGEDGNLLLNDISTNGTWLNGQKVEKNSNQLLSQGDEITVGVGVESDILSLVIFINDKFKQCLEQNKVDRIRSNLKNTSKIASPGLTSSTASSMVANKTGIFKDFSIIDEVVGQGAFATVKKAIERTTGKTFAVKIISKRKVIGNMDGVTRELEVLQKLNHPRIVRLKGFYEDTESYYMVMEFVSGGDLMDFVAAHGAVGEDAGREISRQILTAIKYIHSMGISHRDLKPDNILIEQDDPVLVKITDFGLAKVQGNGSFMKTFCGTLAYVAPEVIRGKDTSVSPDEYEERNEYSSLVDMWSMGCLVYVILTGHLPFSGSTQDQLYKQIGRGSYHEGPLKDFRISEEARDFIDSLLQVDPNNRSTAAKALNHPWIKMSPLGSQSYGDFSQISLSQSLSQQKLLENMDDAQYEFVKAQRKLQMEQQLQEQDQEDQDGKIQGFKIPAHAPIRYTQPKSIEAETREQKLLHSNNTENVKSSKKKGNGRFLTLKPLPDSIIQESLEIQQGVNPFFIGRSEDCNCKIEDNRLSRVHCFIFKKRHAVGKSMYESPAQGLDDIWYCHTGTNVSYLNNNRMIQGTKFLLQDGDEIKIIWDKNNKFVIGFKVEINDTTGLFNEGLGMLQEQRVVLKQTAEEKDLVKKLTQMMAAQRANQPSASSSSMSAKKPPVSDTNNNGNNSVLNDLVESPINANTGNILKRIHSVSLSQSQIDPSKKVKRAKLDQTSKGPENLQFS
# Results are given in words; binding and its absence hold for the method and conditions named. Binding seen in cells or lysates may run through a third protein. Some binding calls cover weakened binding; strength is not graded here. Tags and fused reporters may be left off the sequences shown.
# B1: Rad9-HA (protein, UniProt P14737 1-1309)
# chain: MSGQLVQWKSSPDRVTQSAIKEALHSPLADGDMNEMNVPVDPLENKVNSTNIIEGSPKANPNPVKFMNTSEIFQKSLGLLDESPRHDDELNIEVGDNDRPNANILHNERTPDLDRIANFFKSNRTPGKENLLTKYQSSDLEDTPLMLRKKMTFQTPTDPLEQKTFKKLKSDTGFCYYGEQNDGEENASLEVTEADATFVQMAERSADNYDCALEGIVTPKRYKDELSKSGGMQDERVQKTQIMISAESPNSISSYDKNKITGNGRTTRNVNKVFNNNEDNIGAIEEKNPVKKKSENYSSDDLRERNNQIIQSNESEEINELEKNLNVSGRENDVNNLDIDINSAVSGTPSRNNAEEEMYSSESVNNREPSKKWIFRYSKDKTENNSNRSTQIVNNPRTQEMPLDSISIDTQPLSKSFNTETNNELETQIIVSSLSQGISAQKGPVFHSTGQTEEIKTQIINSPEQNALNATFETPVTLSRINFEPILEVPETSSPSKNTMSKPSNSSPIPKEKDTFNIHEREVETNNVFSNDIQNSSNAATRDDIIIAGSSDFNEQKEITDRIYLQLSGKQISDSGSDETERMSPNELDTKKESTIMSEVELTQELPEVEEQQDLQTSPKKLVVEEETLMEIKKSKGNSLQLHDDNKECNSDKQDGTESLDVALIEHESKGQSSELQKNLMQLFPSESQEIIQNRRTIKRRQKDTIEIGEEEENRSTKTSPTKHLKRNSDLDAASIKREPSCSITIQTGETGSGKDSKEQSYVFPEGIRTADNSFLSKDDIIFGNAVWCQYTWNYKFYPGILLEVDTNQDGCWIYFETGRSLTKDEDIYYLDIRIGDAVTFDGNEYVVVGLECRSHDLNIIRCIRGYDTVHLKKKNASGLLGKRTLIKALSSISLDLSEWAKRAKIILEDNEKNKGDAYRYLRHPIRGRKSMTNVLSPKKHTDDEKDINTHTEVYNNEIESSSEKKEIVKKDSRDALAEHAGAPSLLFSSGEIRTGNVFDKCIFVLTSLFENREELRQTIESQGGTVIESGFSTLFNFTHPLAKSLVNKGNTDNIRELALKLAWKPHSLFADCRFACLITKRHLRSLKYLETLALGWPTLHWKFISACIEKKRIVPHLIYQYLLPSGESFRLSLDSPSKGGIIKSNNIFSFYTQFLRGSNLRDQICGVKKMLNDYIVIVWGRSELDSFVKFAFACLSAGRMLTIDLPNIDVDDTEPLLNALDSLVPRIGSELSNRKLKFLIYANENNGKSQMKLLERLRSQISLKFKKFNYIFHTESKEWLIQTIINEDTGFHDDITDNDIYNTISEVR
# Target: Rad53 (S. cerevisiae (endogenous in W303-derived strains)) (UniProt P22216)
# Assay: co-IP
binder,measurement,value
B1,binding,binds
